From the supplement of paper PMC10849652
This is one part of the list.

Amino acid sequences for entries named in this document (tags omitted). A change or cut given only in a name is not applied to a line headed by its entry.
UniProt P62330: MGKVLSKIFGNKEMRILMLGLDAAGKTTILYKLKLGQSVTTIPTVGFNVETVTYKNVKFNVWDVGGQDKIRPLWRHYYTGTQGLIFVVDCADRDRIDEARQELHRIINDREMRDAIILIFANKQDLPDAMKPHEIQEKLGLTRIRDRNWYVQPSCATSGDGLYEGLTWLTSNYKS
UniProt Q07960: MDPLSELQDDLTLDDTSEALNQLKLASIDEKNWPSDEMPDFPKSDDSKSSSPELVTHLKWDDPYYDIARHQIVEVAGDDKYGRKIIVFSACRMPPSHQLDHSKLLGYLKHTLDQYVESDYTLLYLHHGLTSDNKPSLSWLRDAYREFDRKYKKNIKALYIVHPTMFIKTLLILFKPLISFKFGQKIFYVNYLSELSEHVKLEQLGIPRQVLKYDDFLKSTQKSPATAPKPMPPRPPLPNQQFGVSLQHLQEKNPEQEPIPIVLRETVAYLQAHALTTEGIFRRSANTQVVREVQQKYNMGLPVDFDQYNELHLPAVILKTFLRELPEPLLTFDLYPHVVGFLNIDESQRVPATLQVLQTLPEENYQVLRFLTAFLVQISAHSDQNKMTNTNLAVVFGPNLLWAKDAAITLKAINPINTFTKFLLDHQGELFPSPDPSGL
UniProt Q96CW1: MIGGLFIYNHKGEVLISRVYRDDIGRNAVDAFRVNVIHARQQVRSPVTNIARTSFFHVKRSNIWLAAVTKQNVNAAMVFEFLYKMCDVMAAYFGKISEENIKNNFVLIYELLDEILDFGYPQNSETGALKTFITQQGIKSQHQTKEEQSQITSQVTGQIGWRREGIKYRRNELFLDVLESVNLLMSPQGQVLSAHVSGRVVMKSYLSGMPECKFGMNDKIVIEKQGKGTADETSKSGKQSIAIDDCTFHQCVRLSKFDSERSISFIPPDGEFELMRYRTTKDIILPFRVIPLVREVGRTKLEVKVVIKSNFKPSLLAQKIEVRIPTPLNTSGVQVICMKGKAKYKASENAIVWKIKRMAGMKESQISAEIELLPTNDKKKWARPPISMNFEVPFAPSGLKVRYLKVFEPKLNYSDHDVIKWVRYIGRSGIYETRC
UniProt Q9Y5C1: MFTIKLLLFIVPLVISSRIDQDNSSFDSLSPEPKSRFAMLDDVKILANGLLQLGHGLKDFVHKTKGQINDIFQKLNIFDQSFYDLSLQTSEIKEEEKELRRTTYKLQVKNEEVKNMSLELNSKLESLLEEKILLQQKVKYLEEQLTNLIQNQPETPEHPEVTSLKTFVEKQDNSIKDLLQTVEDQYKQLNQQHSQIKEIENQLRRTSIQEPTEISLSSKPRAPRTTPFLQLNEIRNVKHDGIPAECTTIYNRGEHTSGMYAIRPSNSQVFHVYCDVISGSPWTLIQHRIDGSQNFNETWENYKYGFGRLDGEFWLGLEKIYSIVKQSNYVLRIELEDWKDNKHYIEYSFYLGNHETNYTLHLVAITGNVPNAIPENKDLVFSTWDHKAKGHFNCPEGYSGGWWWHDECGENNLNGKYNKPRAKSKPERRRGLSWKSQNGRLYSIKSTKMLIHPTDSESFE
UniProt P61204: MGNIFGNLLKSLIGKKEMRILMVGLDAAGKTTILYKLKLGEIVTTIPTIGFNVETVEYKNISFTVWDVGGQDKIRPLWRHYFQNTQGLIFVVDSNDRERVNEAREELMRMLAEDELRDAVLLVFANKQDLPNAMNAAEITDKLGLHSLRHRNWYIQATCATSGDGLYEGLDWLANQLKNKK
UniProt P08133: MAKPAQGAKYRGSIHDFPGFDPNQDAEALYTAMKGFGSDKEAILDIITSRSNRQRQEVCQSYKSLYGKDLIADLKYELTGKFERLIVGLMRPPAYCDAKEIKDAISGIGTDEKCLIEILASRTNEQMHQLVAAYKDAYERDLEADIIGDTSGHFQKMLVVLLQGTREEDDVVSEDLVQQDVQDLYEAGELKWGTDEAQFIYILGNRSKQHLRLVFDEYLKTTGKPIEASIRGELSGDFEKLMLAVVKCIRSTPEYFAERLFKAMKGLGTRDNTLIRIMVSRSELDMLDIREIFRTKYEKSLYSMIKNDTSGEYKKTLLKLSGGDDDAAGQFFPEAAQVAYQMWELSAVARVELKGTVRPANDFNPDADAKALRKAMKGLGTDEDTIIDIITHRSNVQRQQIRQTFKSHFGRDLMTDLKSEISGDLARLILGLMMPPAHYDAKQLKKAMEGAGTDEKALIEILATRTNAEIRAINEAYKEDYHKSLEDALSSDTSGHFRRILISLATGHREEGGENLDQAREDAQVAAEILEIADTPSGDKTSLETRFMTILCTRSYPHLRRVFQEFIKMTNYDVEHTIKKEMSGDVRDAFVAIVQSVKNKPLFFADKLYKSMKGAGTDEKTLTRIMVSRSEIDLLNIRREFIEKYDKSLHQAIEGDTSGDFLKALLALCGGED
UniProt Q9NP61: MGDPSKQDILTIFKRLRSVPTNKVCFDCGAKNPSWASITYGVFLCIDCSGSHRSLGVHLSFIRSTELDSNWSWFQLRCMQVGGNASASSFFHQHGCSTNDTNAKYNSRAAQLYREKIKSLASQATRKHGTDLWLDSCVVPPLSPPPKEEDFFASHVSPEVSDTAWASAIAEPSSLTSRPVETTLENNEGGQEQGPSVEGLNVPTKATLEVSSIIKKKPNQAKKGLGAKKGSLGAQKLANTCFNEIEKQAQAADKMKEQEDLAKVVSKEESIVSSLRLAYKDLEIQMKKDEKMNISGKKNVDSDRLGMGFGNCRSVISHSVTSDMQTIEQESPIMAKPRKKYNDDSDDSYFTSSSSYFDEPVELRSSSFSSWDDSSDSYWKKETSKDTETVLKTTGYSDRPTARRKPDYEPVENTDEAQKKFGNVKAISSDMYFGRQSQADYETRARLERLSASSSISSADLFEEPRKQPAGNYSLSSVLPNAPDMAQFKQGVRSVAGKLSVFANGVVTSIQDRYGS
UniProt Q8IV38: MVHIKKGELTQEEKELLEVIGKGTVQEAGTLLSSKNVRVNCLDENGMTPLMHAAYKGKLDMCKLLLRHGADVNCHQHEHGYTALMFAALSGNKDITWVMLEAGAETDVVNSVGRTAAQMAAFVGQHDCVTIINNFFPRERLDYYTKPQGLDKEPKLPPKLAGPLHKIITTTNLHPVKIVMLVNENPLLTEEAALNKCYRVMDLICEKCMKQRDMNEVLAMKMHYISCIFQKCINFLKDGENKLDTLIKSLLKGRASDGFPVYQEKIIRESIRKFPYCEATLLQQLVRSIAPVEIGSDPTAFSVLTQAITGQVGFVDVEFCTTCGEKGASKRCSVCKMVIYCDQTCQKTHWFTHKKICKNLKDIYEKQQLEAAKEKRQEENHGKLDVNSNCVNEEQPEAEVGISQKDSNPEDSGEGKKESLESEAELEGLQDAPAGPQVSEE
UniProt O43747: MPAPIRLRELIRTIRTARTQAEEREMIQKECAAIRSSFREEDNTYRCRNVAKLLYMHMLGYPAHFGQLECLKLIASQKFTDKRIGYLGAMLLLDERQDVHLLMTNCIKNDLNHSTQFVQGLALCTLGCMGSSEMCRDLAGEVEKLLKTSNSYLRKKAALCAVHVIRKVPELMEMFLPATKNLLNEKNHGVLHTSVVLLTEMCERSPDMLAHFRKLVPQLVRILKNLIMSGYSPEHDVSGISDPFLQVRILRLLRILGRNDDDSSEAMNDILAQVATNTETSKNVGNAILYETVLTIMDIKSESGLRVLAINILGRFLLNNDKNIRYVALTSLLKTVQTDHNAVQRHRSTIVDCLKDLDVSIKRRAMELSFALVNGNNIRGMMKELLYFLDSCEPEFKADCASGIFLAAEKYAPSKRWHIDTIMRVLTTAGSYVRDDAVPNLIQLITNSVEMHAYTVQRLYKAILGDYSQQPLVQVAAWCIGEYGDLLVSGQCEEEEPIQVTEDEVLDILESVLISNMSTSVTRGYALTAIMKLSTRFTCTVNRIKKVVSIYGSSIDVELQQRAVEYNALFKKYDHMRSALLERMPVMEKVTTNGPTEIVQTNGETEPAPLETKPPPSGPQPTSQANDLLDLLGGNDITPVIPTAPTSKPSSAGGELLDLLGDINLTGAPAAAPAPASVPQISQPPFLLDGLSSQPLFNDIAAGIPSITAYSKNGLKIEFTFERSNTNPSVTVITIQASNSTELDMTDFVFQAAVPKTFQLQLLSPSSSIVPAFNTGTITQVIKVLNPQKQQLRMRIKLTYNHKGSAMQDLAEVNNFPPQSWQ

Legend:
Assay in all cases: log2 fold change, soluble protein after heating vs DMSO (PISA); higher = thermal stabilisation; K562 cells, 10 uM, 30 min; active = over 0.2 and 3.5 SD of the protein, either way, in both replicates (recomputed)
[1] = compound: C1=CC=C(C=C1)[C@H](COC2=CC3=C(C=C2)NC(=O)N3)NC(=O)C4=CC=CN(C4=O)CC5=CC(=C(C=C5)F)F
How it was run: (§1)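 Thermal stability values are relative to control samples and come from duplicates. They are expressed as log2 fold changes. For measurement, K562 cells (2×10^6 cells/mL) received 10 μM compound for 30 min, and aliquots were heated for 3 min over 48°C-58°C, pooled, and extracted at 4°C in PBS with 0.5% NP-40. Soluble protein, the supernatant after 21,000xg for 90 min, was quantified by TMTpro 16plex LC-MS/MS with equalised channel sums.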

[2] = compound: CC1=C(SC2=C1C(=N[C@H](C3=NN=C(N32)C)CC(=O)N)C4=CC=C(C=C4)Cl)C
How it was run: as §1

[3] = compound: CC1=C2C(=CC=C1)N=C(N(C2=O)C3=CC=CC=C3C)CN4C=NC5=C(N=CN=C54)N
How it was run: as §1

[4] = compound: Cc1sc2c(c1C)C(c1ccc(Cl)cc1)=N[C@@H](CC(=O)OC(C)(C)C)c1nnc(C)n1-2
How it was run: as §1

[5] = compound: c1ccc([C@@H]2C[C@H]2NC2CCNCC2)cc1
How it was run: as §1

Measured: log2 fold change

ARF6 (UniProt P62330)
inactive: [1] -0.044 | [2] 0.066 | [3] 0.008 | [4] -0.106 | [5] 0.016

ARHGAP1 (UniProt Q07960)
inactive: [1] -0.02 | [2] 0.023 | [3] 0.047 | [4] -0.005 | [5] 0.002

AP2M1 (UniProt Q96CW1)
inactive: [1] -0.005 | [2] 0.03 | [3] -0.013 | [4] 0.006 | [5] 0.009

ANGPTL3 (UniProt Q9Y5C1)
inactive: [1] -0.058 | [2] -0.09 | [3] 0.108 | [4] 0.032 | [5] -0.135

ARF3 (UniProt P61204)
inactive: [1] -0.002 | [2] 0.025 | [3] 0.019 | [4] -0.033 | [5] 0.008

ANXA6 (UniProt P08133)
inactive: [1] -0.014 | [2] 0.043 | [3] 0.114 | [4] 0.005 | [5] 0.001

ARFGAP3 (UniProt Q9NP61)
inactive: [1] -0.024 | [2] 0.041 | [3] 0.119 | [4] -0.06 | [5] 0

ANKMY2 (UniProt Q8IV38)
inactive: [1] -0.034 | [2] 0.028 | [3] 0.087 | [4] -0.021 | [5] -0.031

AP1G1 isoform 2 (UniProt O43747)
inactive: [1] -0.038 | [2] 0.035 | [3] 0.058 | [4] -0.003 | [5] -0.048
